Taken from: PubChem BioAssay AID1224829 (NIAID, 2016)
This is one part, drawn at random, of about 3,800 reagents. 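Calls cover raised and lowered translocation; gene median uses one vendor's three siRNAs; qiagen siRNAs acted more weakly than ambion siRNAs.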 Reagents against one gene are numbered here. Not all columns of the deposit are shown. Reagent sequences are not shown.

Test: 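Genes needed for LPS-driven NF-kappaB p65 nuclear entry in mouse macrophages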 (follow-up of hits)
Cell system: mouse RAW264.7 G9 macrophage reporter cells
Knock-down reagent: single siRNA against mouse genes, 100 nM
Time to read-out: 2 days of siRNA knock-down, then 40 min of LPS before fixing
Challenge: LPS (Salmonella minnesota R595) at 10 ng/ml
Detection: 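High-content images after 40 min LPS exposure; GFP-p65 nucleus to surrounding ring signal ratio, normalised to plate median and non-targeting control wells, expressed as z-score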
Scale: p65 translocation z-score: higher = more nuclear NF-kappaB p65 after LPS
Active means: 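Active means the replicate-mean z-score lies beyond plus or minus 2, in either direction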
Calls: active = changed p65 translocation (either direction); inactive = no clear change

{"gene": "Tbca", "reagent": 1, "siRNA vendor or control pool": "ambion single siRNA", "p65 translocation z-score, replicate mean": -5.08, "p65 translocation z-score, replicate 1": -6.14, "outcome": "active"}
{"gene": "Tbca", "reagent": 2, "siRNA vendor or control pool": "ambion single siRNA", "p65 translocation z-score, replicate mean": -0.0238, "p65 translocation z-score, replicate 1": 0.839, "outcome": "inactive"}
{"gene": "Tbca", "reagent": 3, "siRNA vendor or control pool": "ambion single siRNA", "p65 translocation z-score, replicate mean": -1.17, "p65 translocation z-score, replicate 1": 1.74, "outcome": "inactive"}
{"gene": "Tbca", "reagent": 4, "siRNA vendor or control pool": "qiagen single siRNA", "p65 translocation z-score, replicate mean": 1.55, "p65 translocation z-score, replicate 1": 1.47, "outcome": "inactive"}
{"gene": "Tbca", "reagent": 5, "siRNA vendor or control pool": "qiagen single siRNA", "p65 translocation z-score, replicate mean": -0.702, "p65 translocation z-score, replicate 1": -1.25, "outcome": "inactive"}
{"gene": "Tbca", "reagent": 6, "siRNA vendor or control pool": "qiagen single siRNA", "p65 translocation z-score, replicate mean": -0.973, "p65 translocation z-score, replicate 1": -0.293, "outcome": "inactive"}

Next part; the last 2 above are carried over.
{"gene": "Tbca", "reagent": 5, "siRNA vendor or control pool": "qiagen single siRNA", "p65 translocation z-score, replicate mean": -0.702, "p65 translocation z-score, replicate 1": -1.25, "outcome": "inactive"}
{"gene": "Tbca", "reagent": 6, "siRNA vendor or control pool": "qiagen single siRNA", "p65 translocation z-score, replicate mean": -0.973, "p65 translocation z-score, replicate 1": -0.293, "outcome": "inactive"}
{"gene": "Gadd45g", "reagent": 1, "siRNA vendor or control pool": "ambion single siRNA", "p65 translocation z-score, replicate mean": -0.779, "p65 translocation z-score, replicate 1": -0.567, "outcome": "inactive"}
{"gene": "Gadd45g", "reagent": 2, "siRNA vendor or control pool": "ambion single siRNA", "p65 translocation z-score, replicate mean": 0.614, "p65 translocation z-score, replicate 1": 0.911, "outcome": "inactive"}
{"gene": "Gadd45g", "reagent": 3, "siRNA vendor or control pool": "ambion single siRNA", "p65 translocation z-score, replicate mean": -2.82, "p65 translocation z-score, replicate 1": -1.53, "outcome": "active"}
{"gene": "Gadd45g", "reagent": 4, "siRNA vendor or control pool": "qiagen single siRNA", "p65 translocation z-score, replicate mean": 1.56, "p65 translocation z-score, replicate 1": 0.567, "outcome": "inactive"}
{"gene": "Gadd45g", "reagent": 5, "siRNA vendor or control pool": "qiagen single siRNA", "p65 translocation z-score, replicate mean": -2.01, "p65 translocation z-score, replicate 1": -1.92, "outcome": "active"}
{"gene": "Gadd45g", "reagent": 6, "siRNA vendor or control pool": "qiagen single siRNA", "p65 translocation z-score, replicate mean": 0.0485, "p65 translocation z-score, replicate 1": -0.109, "outcome": "inactive"}
